Experimental data taken from publication PMC8257253.
No constants are given. Whether binding was seen depends on the method and setting. In cells and extracts the contact can be indirect. These calls come from enrichment with a bait or labelling near it, and not all partners need be listed.

Protein sequences, listed by entry. Tags and fused reporters are not part of them. Lines headed by an entry give the natural chain unless they say otherwise; changes in a name come on top. Residues count along the entry.
UniProt Q02357: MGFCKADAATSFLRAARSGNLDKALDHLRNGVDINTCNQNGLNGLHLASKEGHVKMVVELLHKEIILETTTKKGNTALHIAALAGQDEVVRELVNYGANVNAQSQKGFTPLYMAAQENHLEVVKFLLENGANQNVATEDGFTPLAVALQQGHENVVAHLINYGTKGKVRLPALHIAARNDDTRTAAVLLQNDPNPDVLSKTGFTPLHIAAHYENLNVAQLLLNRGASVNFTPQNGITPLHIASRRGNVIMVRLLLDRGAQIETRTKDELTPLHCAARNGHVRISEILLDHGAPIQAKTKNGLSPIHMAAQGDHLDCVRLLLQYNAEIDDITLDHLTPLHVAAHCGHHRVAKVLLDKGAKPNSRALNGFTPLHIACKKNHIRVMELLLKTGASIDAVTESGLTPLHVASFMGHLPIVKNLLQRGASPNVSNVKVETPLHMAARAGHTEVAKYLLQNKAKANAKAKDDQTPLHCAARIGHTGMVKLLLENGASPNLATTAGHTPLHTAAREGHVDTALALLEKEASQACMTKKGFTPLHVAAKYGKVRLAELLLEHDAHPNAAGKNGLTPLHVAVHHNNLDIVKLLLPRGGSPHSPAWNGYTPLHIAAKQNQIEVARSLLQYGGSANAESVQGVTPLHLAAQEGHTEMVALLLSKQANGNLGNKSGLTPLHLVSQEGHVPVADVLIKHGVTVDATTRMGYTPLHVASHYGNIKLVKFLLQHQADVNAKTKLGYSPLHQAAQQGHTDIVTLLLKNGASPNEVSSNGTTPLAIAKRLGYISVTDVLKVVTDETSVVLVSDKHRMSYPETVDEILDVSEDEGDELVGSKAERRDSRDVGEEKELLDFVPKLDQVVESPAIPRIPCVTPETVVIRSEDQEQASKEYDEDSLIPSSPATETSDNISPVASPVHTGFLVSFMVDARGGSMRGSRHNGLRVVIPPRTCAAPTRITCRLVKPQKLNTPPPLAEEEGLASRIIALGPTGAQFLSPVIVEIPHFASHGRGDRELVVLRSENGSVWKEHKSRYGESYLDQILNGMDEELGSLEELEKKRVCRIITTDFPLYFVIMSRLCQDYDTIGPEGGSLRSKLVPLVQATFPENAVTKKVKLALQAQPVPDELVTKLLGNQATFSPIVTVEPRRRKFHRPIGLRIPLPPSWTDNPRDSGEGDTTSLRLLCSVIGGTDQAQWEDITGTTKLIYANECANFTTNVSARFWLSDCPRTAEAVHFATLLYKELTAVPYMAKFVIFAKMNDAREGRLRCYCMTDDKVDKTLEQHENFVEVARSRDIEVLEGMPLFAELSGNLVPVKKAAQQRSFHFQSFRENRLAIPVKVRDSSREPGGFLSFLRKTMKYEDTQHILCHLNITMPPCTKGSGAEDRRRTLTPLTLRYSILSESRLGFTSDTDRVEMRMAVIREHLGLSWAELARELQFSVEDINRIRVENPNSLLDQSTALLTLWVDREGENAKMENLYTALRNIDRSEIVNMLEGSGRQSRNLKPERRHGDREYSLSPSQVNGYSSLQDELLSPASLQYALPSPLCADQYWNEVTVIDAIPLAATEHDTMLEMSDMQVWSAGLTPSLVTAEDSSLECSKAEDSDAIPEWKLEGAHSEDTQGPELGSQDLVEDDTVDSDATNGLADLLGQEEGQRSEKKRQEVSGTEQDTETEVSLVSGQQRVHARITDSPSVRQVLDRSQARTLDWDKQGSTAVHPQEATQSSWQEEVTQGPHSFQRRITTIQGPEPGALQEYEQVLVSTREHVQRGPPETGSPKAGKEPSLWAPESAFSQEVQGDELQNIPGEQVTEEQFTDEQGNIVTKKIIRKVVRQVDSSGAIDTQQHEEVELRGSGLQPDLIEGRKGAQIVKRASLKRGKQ
UniProt Q8BLK3: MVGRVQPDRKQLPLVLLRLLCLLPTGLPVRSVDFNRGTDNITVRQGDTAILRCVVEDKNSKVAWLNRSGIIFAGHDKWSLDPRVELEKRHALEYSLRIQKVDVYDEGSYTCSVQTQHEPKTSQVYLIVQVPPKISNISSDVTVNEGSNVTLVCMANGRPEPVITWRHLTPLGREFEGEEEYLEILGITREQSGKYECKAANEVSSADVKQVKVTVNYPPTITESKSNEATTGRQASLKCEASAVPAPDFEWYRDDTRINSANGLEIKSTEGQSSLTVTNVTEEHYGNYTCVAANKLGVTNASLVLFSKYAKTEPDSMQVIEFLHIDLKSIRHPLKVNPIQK
UniProt O08638: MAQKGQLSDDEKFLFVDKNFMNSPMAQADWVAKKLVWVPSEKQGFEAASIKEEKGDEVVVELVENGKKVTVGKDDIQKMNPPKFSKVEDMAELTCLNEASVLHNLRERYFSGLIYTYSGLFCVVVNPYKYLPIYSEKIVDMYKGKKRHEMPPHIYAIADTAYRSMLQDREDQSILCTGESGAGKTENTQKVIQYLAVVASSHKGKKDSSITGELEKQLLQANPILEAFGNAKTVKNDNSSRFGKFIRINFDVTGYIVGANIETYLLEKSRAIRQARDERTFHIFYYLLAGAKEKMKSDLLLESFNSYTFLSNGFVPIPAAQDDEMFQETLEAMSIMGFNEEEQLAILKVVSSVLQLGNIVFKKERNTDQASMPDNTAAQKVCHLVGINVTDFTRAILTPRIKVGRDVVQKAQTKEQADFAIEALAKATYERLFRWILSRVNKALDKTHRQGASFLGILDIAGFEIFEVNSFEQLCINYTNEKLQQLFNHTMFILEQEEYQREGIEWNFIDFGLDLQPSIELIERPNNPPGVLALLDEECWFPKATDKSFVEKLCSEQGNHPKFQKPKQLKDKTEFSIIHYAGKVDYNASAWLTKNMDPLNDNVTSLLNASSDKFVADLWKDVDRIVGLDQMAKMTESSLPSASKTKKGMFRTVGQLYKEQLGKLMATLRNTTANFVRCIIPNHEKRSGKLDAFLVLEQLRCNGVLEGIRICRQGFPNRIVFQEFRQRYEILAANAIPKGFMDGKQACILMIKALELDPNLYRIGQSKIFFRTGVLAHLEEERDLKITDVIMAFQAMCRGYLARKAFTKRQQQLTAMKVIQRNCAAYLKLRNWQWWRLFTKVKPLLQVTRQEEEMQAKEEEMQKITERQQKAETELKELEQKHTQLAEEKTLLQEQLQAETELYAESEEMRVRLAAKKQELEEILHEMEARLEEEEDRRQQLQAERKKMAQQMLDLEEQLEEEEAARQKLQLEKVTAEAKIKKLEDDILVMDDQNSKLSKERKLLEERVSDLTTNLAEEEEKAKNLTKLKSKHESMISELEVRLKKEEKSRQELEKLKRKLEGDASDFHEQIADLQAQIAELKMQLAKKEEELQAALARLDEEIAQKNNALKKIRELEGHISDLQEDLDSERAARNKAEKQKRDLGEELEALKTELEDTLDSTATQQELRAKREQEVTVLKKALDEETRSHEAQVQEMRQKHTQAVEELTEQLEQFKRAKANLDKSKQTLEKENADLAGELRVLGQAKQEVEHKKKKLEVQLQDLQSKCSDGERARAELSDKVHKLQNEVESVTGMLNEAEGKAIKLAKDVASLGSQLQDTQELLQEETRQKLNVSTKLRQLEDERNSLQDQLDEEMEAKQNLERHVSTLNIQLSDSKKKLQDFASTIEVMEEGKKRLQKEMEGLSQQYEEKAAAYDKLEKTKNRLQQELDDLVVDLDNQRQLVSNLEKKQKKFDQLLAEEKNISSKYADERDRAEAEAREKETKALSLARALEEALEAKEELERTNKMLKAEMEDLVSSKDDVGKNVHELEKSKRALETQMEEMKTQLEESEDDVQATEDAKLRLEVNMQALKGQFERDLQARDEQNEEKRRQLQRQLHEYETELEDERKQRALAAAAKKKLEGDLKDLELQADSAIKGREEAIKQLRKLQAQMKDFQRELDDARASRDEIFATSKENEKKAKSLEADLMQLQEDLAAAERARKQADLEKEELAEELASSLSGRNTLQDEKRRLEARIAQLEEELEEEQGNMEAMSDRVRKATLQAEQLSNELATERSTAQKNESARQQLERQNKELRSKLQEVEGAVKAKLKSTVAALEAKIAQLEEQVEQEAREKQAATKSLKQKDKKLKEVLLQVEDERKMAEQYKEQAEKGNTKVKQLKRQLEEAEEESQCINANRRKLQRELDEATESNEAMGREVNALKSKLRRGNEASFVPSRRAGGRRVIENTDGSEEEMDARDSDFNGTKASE
UniProt Q80UG2, residues 24-1893: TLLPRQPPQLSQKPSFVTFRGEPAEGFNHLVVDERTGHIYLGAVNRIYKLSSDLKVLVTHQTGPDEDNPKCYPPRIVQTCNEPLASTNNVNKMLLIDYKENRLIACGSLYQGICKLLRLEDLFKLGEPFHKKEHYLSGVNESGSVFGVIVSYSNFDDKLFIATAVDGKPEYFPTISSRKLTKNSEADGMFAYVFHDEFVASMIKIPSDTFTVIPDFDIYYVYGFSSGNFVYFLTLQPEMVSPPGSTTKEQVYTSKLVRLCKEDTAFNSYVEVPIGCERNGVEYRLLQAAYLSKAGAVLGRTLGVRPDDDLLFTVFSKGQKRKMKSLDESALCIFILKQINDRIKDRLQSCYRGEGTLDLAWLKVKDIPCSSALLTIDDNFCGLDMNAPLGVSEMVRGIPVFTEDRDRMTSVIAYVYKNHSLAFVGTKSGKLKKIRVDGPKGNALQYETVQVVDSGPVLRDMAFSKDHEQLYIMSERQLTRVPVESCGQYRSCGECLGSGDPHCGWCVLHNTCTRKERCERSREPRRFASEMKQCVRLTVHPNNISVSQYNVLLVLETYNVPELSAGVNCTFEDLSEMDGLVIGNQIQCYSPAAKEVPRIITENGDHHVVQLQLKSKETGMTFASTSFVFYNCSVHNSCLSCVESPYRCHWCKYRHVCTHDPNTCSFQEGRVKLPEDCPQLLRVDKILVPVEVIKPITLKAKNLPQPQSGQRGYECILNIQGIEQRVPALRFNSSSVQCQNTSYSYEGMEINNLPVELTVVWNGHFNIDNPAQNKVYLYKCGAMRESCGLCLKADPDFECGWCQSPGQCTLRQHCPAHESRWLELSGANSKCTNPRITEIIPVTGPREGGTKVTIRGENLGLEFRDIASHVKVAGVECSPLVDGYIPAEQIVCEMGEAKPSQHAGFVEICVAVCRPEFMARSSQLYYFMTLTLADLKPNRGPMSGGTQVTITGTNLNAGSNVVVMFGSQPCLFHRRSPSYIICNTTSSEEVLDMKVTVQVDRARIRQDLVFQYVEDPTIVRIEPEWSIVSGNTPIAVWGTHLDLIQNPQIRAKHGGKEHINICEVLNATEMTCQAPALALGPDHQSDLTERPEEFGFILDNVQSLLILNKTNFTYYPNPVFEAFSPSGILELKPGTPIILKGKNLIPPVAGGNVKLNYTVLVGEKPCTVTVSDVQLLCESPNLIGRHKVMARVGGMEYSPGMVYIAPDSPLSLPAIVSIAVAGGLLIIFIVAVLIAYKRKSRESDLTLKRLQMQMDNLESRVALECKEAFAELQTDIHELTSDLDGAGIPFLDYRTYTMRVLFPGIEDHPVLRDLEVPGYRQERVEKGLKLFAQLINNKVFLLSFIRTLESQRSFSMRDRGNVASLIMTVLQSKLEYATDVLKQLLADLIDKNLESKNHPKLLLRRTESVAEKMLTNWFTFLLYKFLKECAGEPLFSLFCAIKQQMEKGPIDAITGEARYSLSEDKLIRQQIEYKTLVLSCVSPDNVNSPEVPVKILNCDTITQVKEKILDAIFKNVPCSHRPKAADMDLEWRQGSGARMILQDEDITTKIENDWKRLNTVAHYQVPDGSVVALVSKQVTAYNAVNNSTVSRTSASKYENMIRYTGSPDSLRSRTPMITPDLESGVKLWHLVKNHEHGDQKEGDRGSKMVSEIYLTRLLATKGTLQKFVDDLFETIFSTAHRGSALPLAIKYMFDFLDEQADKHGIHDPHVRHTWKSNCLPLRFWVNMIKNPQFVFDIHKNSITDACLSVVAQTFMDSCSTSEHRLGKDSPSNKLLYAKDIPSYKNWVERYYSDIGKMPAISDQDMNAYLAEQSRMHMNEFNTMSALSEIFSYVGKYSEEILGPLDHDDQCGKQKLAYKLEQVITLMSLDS

B1: adhesion G-protein-coupled receptor Gpr158 (receptor, UniProt Q8C419 25-1200)
chain: SLDPPGRPDSPRERTPRGKQHGQQLPRASAPDPSIPWSRSTDGTILAQKLAEEVPVDVASYLYTGDFHQLKRANCSGRYELAGLPGKSPSLASSHPSLHGALDTLTHATNFLNMMLQSNKSREQTVQDDLQWYQALVRSLLEGEPSISRAAITFSTESLSTPAPQVFLQATREESRILLQDLSSSAHHLANATLETEWFHGLRRKWRPHLHRRGSNQGPRGLGHSWRRRDGLGGDRSHVKWSPPYLECENGSYKPGWLVTLSAAFYGLQPNLVPEFRGVMKVDISLQKVDIDQCSSDGWFSGTHKCHLNNSECMPIKGLGFVLGAYQCICKAGFYHPRVFSVNNFQRRGPDHHFSGSTKDVSEETHVCLPCREGCPFCADDRPCFVQEDKYLRLAIISFQALCMLLDFVSMLVVYHFRKAKSIRASGLILLETILFGSLLLYFPVVILYFEPSTFRCILLRWARLLGFATVYGTVTLKLHRVLKVFLSRTAQRIPYMTGGRVMRMLAVIVLVVFWFLVGWTSSMCQNLERDILLVGQGQTSDHLTFNMCLIDRWDYMTAVAEFLFLLWGIYLCYAVRTVPSAFHEPRYMAVAVHNELIITAIFHTIRFVLASRLQPDWMLMLYFAHAHLTVTVTIGLLLIPKFSHSSNNPRDDIATEAYEDELDMGRSGSYLNSSINSAWSEHSLDPEDIRDELKKLYAQLEIYKRKKMITNNPHLQKKRCSKKGLGRSIMRRITEIPETVSRQCSKEDKEGTDHSAAKGTGLVRKNPTESSGNTGRPKEESLKNRVFSLKKSHSTYDHVRDQTVESSSLPMESQEEEATENSTLESLSSKKLTQKLKEDSEAESTESVPLVCKSASAHNLSSEKKPGHPRTSMLQKSLSVIASAKEKTLGLAGKTQTLVMEDRAKSQKPKDRETIRKYSNSDNVETIPNSGHMEEPRKPQKSGIMKQQRVSLPTANPDVSSGITQIKDNFDIGEVCPWEVYDLTPGPMPSEPKAQKHVSIAASEVEQNPASFLKEKSYHKSKATEGLYQANHKSIDKTEVCPWEIHSQSLLEDENRLISKTPVLPGRAREENGSQLYTTNMCAGQYEELPHKVVAPKVENENLNQMGDQEKQTSSSVDIIPGSCNSSNNSHQPLTSRAEVCPWEFEPLEQPNAERSVTLPASSALSANKIPGPQK

The molecules below were run against Ankyrin-R (mouse (endogenous in mouse brain)) (UniProt Q02357) (assay: affinity purification with mass spectrometry; AnkR immunoprecipitations in biological triplicate from whole Ank1 F/F mouse brain lysates; candidates filtered by ≥10 mean PSMs and by reduction in AnkR-KO hindbrain homogenates (differential proteomics)).

binding, binds:
B1

Biological target: Ankyrin-R (mouse (endogenous in mouse brain)) (UniProt Q02357)
Assay: as above
Remark: another data set of the same source

binding, binds:
Itsn1 (from UniProt Q9Z0R4 1-1714)
Kif1a (from UniProt P33173 1-1695)
Limbic System Associated Membrane Protein (from UniProt Q8BLK3)
Myh11 (from UniProt O08638 1-1972)
NrCAM (from UniProt Q810U4 30-1256)
PlexinA4 (from UniProt Q80UG2 24-1893) (receptor)
